Source: patent publication US20110059114A1, “Compositions and Methods for the Treatment of Radioresistant Glioma Stem Cells” (DUKE UNIVERSITY, priority 2009, published 2011)
For at least one compound, name, drawing or mass did not settle the structure.

Legend:
CD133+ glioma stem cells = experiment: Caspase-Glo 3/7 assay, relative caspase 3/7 activities; type: cell-based, human; settings: 10 μM LY294002 or 50 μM Akt inhibitor III, with or without radiation, 48 hours
Protocol: FIG. 2 is a series of graphs illustrating that γ-secretase inhibitors enhance radiation-induced cell death in glioma stem cells. (A) T4302 CD 133+ cells were pre-treated with DAPT or L685,458 for 4 hours and irradiated at 3 Gy. Percentage of dead cells was determined by trypan blue exclusion assay at 48 hours after radiation exposure. (B) T4302 CD 133+ cells were treated with GSIs ±radiation as indicated. Cells were then plated at 3000 cells per well in 96-well plates. Relative caspase 3/7 activities were determined by normalizing caspase activities to the corresponding cell titers. (C) T4302 CD 133+ cells were treated as described in FIG. 2A. 24 or 48 hours after radiation exposure, cells were labeled with FITC-conjugated Annexin V staining kit (BD Sciences) according to manufacturer's instructions and analyzed by flow cytometry. […] Relative caspase 3/7 activities were determined at 72 hours after radiation. (E) T4302 CD133+ cells were pre-treated with DAPT at indicated concentrations for 4 hours and irradiated at 3 Gy. Relative caspase activities were determined at 48 or 72 hours after radiation. *: p<0.01 by Student's t-test; #: p<0.01 by one-way ANOVA.
The caspase activities at 48 or 72 hours after radiation were measured using the Caspase-Glo 3/7 assay (Promega) according to the manufacturer's instructions. […]

Akt = experiment: Immunoblotting of phospho-Akt (S473); type: cell-based, human; settings: 10 μM LY294002 or 50 μM Akt inhibitor III, 48 hours
Protocol: FIG. 5 is a set of immunoblots and a graph illustrating that the Notch pathway regulates radioresistance of glioma stem cells via the Akt pathway and Mcl-1. T4302 CD 133+ cells were infected with control lentivirus or lentivirus directing expression of NICD2. Cells were pre-treated with or without 2 μM DPAT for 4 hours and exposed to 3-Gy radiation. Irradiated cells were collected at 24 or 48 hours after radiation, and sham-irradiated cells were collected at 48 hours after radiation. (A, C, D) Protein levels of phospho-Akt (S473), total Akt, PTEN, Bcl-2, Bcl-xL, Mcl-1, phospho-p53 (S15), total p53 and PUMA were assessed by immunoblotting. Actin was blotted as the loading control. (B) Control cells or NICD2-expressing cells were pre-treated with 10 μM PI3K inhibitor, LY294002, or 50 μM Akt inhibitor III (SH-6), for 4 hours prior to radiation exposure. Relative caspase 3/7 activities were determined at 48 hours after radiation exposure. #: p<0.001, by one-way ANOVA.
FIG. 13 is an immunoblot illustrating that LY294002 or Akt inhibitor III reduce Akt activity in glioma stem cells. T4302 glioma stem cells were treated with 10 μM LY294002 or 50 μM Akt inhibitor III (SH-6) in the presence or absence of radiation. Cells were collected for immunoblotting at 48 hours after radiation as described in FIG. 5.
Antibodies, DNA constructs, lentiviruses and other reagents. […]

Structure (SMILES): O=c1cc(N2CCOCC2)oc2c(-c3ccccc3)cccc12 [LY294002]
- cell death of glioma stem cells (caspase 3/7) (CD133+ glioma stem cells): increased cell death
- phosphorylation at S473 of Akt (Akt): reduced phosphorylation
